Experimental data taken from publication PMC11497051.
These are yes or no findings as the source states them, for the method shown. In cells and extracts the contact can be indirect. These calls come from enrichment with a bait or labelling near it, and not all partners need be listed.

By UniProt entry, the sequences of proteins in these tests, tags left out.
UniProt P46937: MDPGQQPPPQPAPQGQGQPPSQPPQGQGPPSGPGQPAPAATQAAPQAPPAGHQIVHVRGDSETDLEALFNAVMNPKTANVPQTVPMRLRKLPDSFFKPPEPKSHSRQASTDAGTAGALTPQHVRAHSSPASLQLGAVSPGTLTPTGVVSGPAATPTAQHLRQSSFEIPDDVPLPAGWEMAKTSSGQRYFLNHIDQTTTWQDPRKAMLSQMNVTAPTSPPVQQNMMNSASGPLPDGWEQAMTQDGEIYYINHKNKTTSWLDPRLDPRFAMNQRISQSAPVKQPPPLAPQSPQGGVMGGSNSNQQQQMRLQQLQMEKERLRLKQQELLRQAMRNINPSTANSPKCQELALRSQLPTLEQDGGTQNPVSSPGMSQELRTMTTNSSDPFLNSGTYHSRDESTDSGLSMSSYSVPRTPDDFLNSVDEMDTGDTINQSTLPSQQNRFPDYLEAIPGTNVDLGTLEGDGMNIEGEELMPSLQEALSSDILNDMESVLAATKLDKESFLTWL

Biological target: T1, Neuraminidase 4 (NEU4) (human (endogenous in HK-2)) (UniProt Q8WWR8)
T1 sequence: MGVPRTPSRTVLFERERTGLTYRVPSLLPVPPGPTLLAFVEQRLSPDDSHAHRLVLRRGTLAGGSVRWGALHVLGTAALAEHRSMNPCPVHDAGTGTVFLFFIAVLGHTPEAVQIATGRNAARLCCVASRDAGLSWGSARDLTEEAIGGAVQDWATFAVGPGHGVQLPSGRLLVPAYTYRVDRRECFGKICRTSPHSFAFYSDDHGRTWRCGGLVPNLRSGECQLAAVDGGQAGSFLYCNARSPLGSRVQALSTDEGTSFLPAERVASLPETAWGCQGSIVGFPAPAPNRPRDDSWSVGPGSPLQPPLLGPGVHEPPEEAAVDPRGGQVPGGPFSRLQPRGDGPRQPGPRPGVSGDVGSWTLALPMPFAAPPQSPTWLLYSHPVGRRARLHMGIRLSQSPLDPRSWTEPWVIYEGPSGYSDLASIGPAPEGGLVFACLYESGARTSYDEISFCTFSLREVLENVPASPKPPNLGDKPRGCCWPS
Assay: affinity purification with mass spectrometry; lysates of HK-2 cells treated with TGF-β for 24 h; IP with NEU4 antibody or IgG on Protein A/G magnetic beads; washes with 1% SDS, 0.1% SDS and 6 M urea in PBS; bands cut from SDS-PAGE, trypsin, LC-MS/MS

binding: binds
Substance: Yes-associated protein (YAP) (from UniProt P46937 1-504)
